Data reported in publication PMC4446440, “Structural and functional analysis reveals that human OASL binds dsRNA to enhance RIG-I signaling” (Nucleic Acids Research, 2015).
These are yes or no findings as the source states them, for the method shown. Some entries that bind do so weakly or less than the wild type. Where a sequence is shown, tags or fusion partners need not be part of it.

Tests used:
[1] = biological target: OASL, 3x C-terminal FLAG-tagged, stably expressed in Flp-In T-REx HEK293 cells (human) (UniProt Q15646); experiment: SEC; size exclusion chromatography on lysates of Flp-In T-Rex HEK293 cells stable transfected with OASL
[2] = biological target: OAS-like domain of OASL (residues 1-350) with a C-terminal 6xHis-tag (human) (UniProt Q15646); experiment: SEC; HiLoad 16/60 Superdex 75; 100 mM DL-malic acid pH 5.9, 200 Na2SO4, 300 mM NaCl, 2 mM BME, 5% glycerol; markers beta-amylase, albumin, carbonic anhydrase; both purified

Binder | binding [1] | binding [2]
full-length OASL (human 2'-5' oligoadenylate synthetase-like protein), recombinant from insect cells (natural protein, UniProt Q15646 1-514, looked up, human OASL, full length (printed as 61 kDa); OAS-like domain (residues 1-350) followed by two ubiquitin-like domains; also called OAS-like protein) MALMQELYSTPASRLDSFVAQWLQPHREWKEEVLDAVRTVEEFLRQEHFQGKRGLDQDVRVLKVVKVGSFGNGTVLRSTREVELVAFLSCFHSFQEAAKHHKDVLRLIWKTMWQSQDLLDLGLEDLRMEQRVPDALVFTIQTRGTAEPITVTIVPAYRALGPSLPNSQPPPEVYVSLIKACGGPGNFCPSFSELQRNFVKHRPTKLKSLLRLVKHWYQQYVKARSPRANLPPLYALELLTIYAWEMGTEEDENFMLDEGFTTVMDLLLEYEVICIYWTKYYTLHNAIIEDCVRKQLKKERPIILDPADPTLNVAEGYRWDIVAQRASQCLKQDCCYDNRENPISSWNVKRARDIHLTVEQRGYPDFNLIVNPYEPIRKVKEKIRRTRGYSGLQRLSFQVPGSERQLLSSRCSLAKYGIFSHTHIYLLETIPSEIQVFVKNPDGGSYAYAINPNSFILGLKQQIEDQQGLPKKQQQLEFQGQVLQDWLGLGIYGIQDSDTLILSKKKGEALFPAS | binds | –
OAS-like domain of OASL (residues 1-350) with a C-terminal 6xHis-tag (domain or fragment, UniProt Q15646 1-350) MALMQELYSTPASRLDSFVAQWLQPHREWKEEVLDAVRTVEEFLRQEHFQGKRGLDQDVRVLKVVKVGSFGNGTVLRSTREVELVAFLSCFHSFQEAAKHHKDVLRLIWKTMWQSQDLLDLGLEDLRMEQRVPDALVFTIQTRGTAEPITVTIVPAYRALGPSLPNSQPPPEVYVSLIKACGGPGNFCPSFSELQRNFVKHRPTKLKSLLRLVKHWYQQYVKARSPRANLPPLYALELLTIYAWEMGTEEDENFMLDEGFTTVMDLLLEYEVICIYWTKYYTLHNAIIEDCVRKQLKKERPIILDPADPTLNVAEGYRWDIVAQRASQCLKQDCCYDNRENPISSWNVKR | – | no binding
